# Source: PubChem BioAssay AID2685 (National Center for Advancing Translational Sciences (NCATS), 2010)
# This is one part of the list. The main result of the screen is listed elsewhere. These columns were measured beside it and carry no call. Most of these compounds were active or inconclusive in the main read-out, so they are no random draw. Words in brackets tell the shape of the fitted curve; partial curves, single points and poor fits give uncertain potencies. *1 amine or outer side, *2 acyl side, *3 side chain or, on linkers, in order; H or OH if unused. Where a SMILES comes first, the peptide text is derived from it. Bridges are numbered along the chain shown (N, C = ends). [ ]: non-standard residue; d: D form. ξ: configuration not given here. hSer(Ph(2-I,4-NO2,6-CO)) = O=C([C@H](CCOc1c(I)cc([N+](=O)[O-])cc1C(=O)[*:3])N[*:1])[*:2]; ξD = NC(CC(=O)O)C(=O)O
# Experiment: qHTS Assay for Lipid Storage Modulators in Drosophila S3 Cells;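 on cell number change: cells counted by Cell Tracker Red CMTPX staining in the red channel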
# Conditions: BODIPY lipid droplet fluorescence, 18-24 h; for cell number change: measured here: cell count max response, cells fed with added oleic acid
# Method in brief: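 Laser-scanning cytometry quantifies lipid droplet accumulation (500–530 nm total intensity; droplet/cell object ratio) in oleic acid-fed (400 uM added) Drosophila S3 cells treated with a concentration series. 20 uM Triacsin C defined 100% inhibition.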
# [1] = measured here: lipid fluorescence (Fed channel) AC50, cells fed with added oleic acid
# [2] = measured here: cell number channel AC50, cells fed with added oleic acid
Compound,cell number change [%],AC50 [1],AC50 [2]
COc1cccc(NC(=O)CN(C)C(=O)c2cccc(S(=O)(=O)Nc3ccccc3OC)c2)c1,0.311,"8.2 µM [rising, partial curve]",–
C/C(CC(O)(/C=N/O)c1ccccc1)=N\O (configuration not stated),–,"4.11 µM [falling, single point]",–
Cc1c(NC(=O)Cn2cc([N+](=O)[O-])cn2)c(=O)n(-c2ccccc2)n1C,18.9,"29.1 µM [rising, single point]",–
O=C(C1CCCN1S(=O)(=O)c1cccc2nsnc12)N1CCCCCC1 (configuration not stated),–,"29.1 µM [rising, single point]",–
CCNCC(=O)Nc1c(C)cccc1C,–,"29.1 µM [rising, single point]",–
"C[C@@H]1NC(=O)[C@H](CC(N)=O)NC(=O)c2cc([N+](=O)[O-])cc(I)c2OCC[C@@H](C(=O)NC(CC(=O)O)C(N)=O)NC1=O (some centres not stated) (NA[hSer(Ph(2-I,4-NO2,6-CO))][ξD]-NH2; lactam N-3)",46.1,"23.1 µM [rising, single point]","18.4 µM [rising, single point]"
CC(NC(=O)/C(C#N)=C1\N=C(NC(=O)c2cccs2)c2ccccc21)c1ccccc1 (configuration not stated),–,"0.00517 µM [falling, full curve, poor fit]",–
CSCC[C@H](NC(=O)[C@H](Cc1ccccc1)n1c(=O)[nH]c2ccccc2c1=O)C(=O)NCC1CCC(C(=O)O)CC1 (some centres not stated),-6.15,–,–
CC(C)NC(=S)NN=C1c2ccccc2-c2ccccc21,21.2,"2.06 µM [rising, full curve]",–
CCOc1ccc(C(=O)Nc2ccc(S(=O)(=O)Nc3cc(C)on3)cc2)cc1,-3.36,–,–
Cn1c(=O)[nH]c(=O)c2c1nc(Br)n2CCCc1ccccc1,2.78,"0.231 µM [rising, full curve, poor fit]",–
O=C(NCc1ccc(F)cc1)C1CCN(S(=O)(=O)N2CCCC2)CC1,21.4,"2.91 µM [rising, full curve, poor fit]",–
CC(C)CNC(=O)c1ccccc1Oc1ccccc1,55.8,"20.6 µM [rising, partial curve]","20.6 µM [rising, single point]"
Nc1[nH]c(N=NC(=O)c2ccccc2)c2ccccc12,27.3,"1.3 µM [rising, partial curve]",–
CCc1nnc(NC(=O)c2sc3nc4cc(C)ccc4cc3c2N)s1,150,–,–
Cc1cc(C)c2c(=O)c3c(oc2c1)C(=O)N(CCO)C3c1cccc(O)c1 (configuration not stated),8.41,"2.59 µM [rising, partial curve]",–
O=C(CCn1nc(-c2ccc(Cl)cc2)ccc1=O)N1CCN(c2ccc(F)cc2)CC1,-2.13,–,"6.51 µM [rising, single point]"
CCOC(=O)COc1cc(N)c(Cl)cc1Cl,-1.76,–,–
CC(C)c1nnc(SCC(=O)NCCC2=CCCCC2)n1N,12.1,"6.51 µM [falling, single point]","0.92 µM [falling, full curve]"
COc1ccc(NC(=O)c2ccc(OCc3c(C)noc3C)c(OC)c2)cn1,10.9,"0.517 µM [falling, single point]",–

# Of the compounds above, 2 contain fluorine:
Compound,cell number change [%],AC50 [1],AC50 [2]
O=C(NCc1ccc(F)cc1)C1CCN(S(=O)(=O)N2CCCC2)CC1,21.4,"2.91 µM [rising, full curve, poor fit]",–
O=C(CCn1nc(-c2ccc(Cl)cc2)ccc1=O)N1CCN(c2ccc(F)cc2)CC1,-2.13,–,"6.51 µM [rising, single point]"

# Molecules shown so far that contain a COOH group, in the order listed:
Compound,cell number change [%],AC50 [1],AC50 [2]
"C[C@@H]1NC(=O)[C@H](CC(N)=O)NC(=O)c2cc([N+](=O)[O-])cc(I)c2OCC[C@@H](C(=O)NC(CC(=O)O)C(N)=O)NC1=O (some centres not stated) (NA[hSer(Ph(2-I,4-NO2,6-CO))][ξD]-NH2; lactam N-3)",46.1,"23.1 µM [rising, single point]","18.4 µM [rising, single point]"
CSCC[C@H](NC(=O)[C@H](Cc1ccccc1)n1c(=O)[nH]c2ccccc2c1=O)C(=O)NCC1CCC(C(=O)O)CC1 (some centres not stated),-6.15,–,–

# Additional compounds:

Compound,cell number change [%],AC50 [1],AC50 [2]
Cc1c(-c2ccc(F)cc2)[n+](=O)c(-c2ccc(F)cc2)c(C)n1[O-],–,–,"2.59 µM [rising, partial curve, poor fit]"
C=CC(=O)NN(C)c1ncc(C(F)(F)F)cc1Cl,-8.27,–,"4.11 µM [falling, partial curve, poor fit]"
COc1ccccc1C(=O)NCCC(=O)N1CCCCCCC1,-16.2,–,–
CCOC(=O)c1c(NC(=O)CN2C(=O)NC3(CCCCC3)C2=O)sc(C)c1-c1ccc(C)cc1,-17.1,"20.6 µM [falling, partial curve]",–
CCCCn1c(=S)[nH]c2ncccc2c1=O,6.25,"14.6 µM [rising, single point]",–
CN1CCN(c2ccc([N+](=O)[O-])cc2NC(=O)c2ccco2)CC1,17.3,"1.64 µM [rising, partial curve, poor fit]",–
COc1ccc(N=Nc2cc(-c3ccccc3)ccc2O)cc1,-4.21,"4.11 µM [falling, full curve, poor fit]",–
CCOc1ccc(CN2C(=O)CCC2(C)C(=O)NCc2cccnc2)cc1 (configuration not stated),-61.3,"23.1 µM [falling, partial curve]","25.9 µM [falling, partial curve]"
C=CCn1c(SCC(=O)N(CCOC)c2c(N)n(CC(C)C)c(=O)[nH]c2=O)nc2ccccc21,-42.6,"18.4 µM [falling, single point]","25.9 µM [falling, single point]"
O=C(Nc1ccc(N2CCCC2)c(Cl)c1)c1ccc(Br)o1,2.26,"1.3 µM [rising, partial curve, poor fit]",–
O=C(COc1ccc(F)cc1)N(Cc1cccc(Br)c1)C1CCS(=O)(=O)C1 (configuration not stated),-17.1,"29.1 µM [rising, single point]","0.00517 µM [falling, full curve, poor fit]"
Cc1ccc(C(=O)N/N=C\c2sccc2C)cn1,–,"29.1 µM [falling, single point]",–
COC(=O)c1ccc(C(=O)OC)c(NC(=S)N2CCCC(C)C2)c1 (configuration not stated),22.1,"1.64 µM [rising, full curve, poor fit]",–
Cc1cccc(C(=O)Oc2ccccc2/C=N/Nc2ccc([N+](=O)[O-])cc2)c1,10.7,"1.64 µM [rising, partial curve]",–
CCOC(=O)c1cnn(-c2nc(-c3ccc(F)cc3)cs2)c1C(F)(F)F,-12.2,–,–
Cc1ccccc1N1CC(C(=O)N2CC(C)OC(C)C2)CC1=O (configuration not stated),9.21,–,–
Cn1nc(C(F)(F)F)c(/C=N/OCc2c(Cl)cccc2Cl)c1Cl,6.9,"29.1 µM [rising, single point]",–
COc1ccc(C2C(C(=O)C(C)(C)C)=C(O)C(=O)N2Cc2ccccc2)cc1 (configuration not stated),35.1,"18.4 µM [rising, partial curve, poor fit]","29.1 µM [rising, single point]"
COc1ccc2c(c1)cc(C(=O)N[C@@H](CCSC)C(=O)N1CCC[C@H]1C(=O)O)n2C,20.8,–,–
O=C1c2nc3cc(-c4ccccc4)[nH]n3c(=O)c2CN1Cc1ccccc1,-16.2,–,–

Compound,cell number change [%],AC50 [1],AC50 [2]
Cc1cccc(NC(=O)c2cc(N3C(=O)CCC3=O)ccc2Cl)n1,4.54,"20.6 µM [rising, partial curve]",–
NC(=O)c1cccnc1Oc1cccc(Cl)c1,21.6,–,–
COc1cccc(NC(=O)CCN2C(=O)c3ccccc3Sc3ncccc32)c1,-5.5,"29.1 µM [rising, single point]",–
O=[N+]([O-])c1cccc(/C=C/c2ccccn2)c1,26.5,"29.1 µM [rising, single point]",–
C/C(=N\NC(=S)NCCc1ccccc1)c1ccc(O)cc1O,-13.3,–,–
COc1ccccc1N1CCN(C2CCCN(C(=O)CCc3ccccn3)C2)CC1 (configuration not stated),-2.31,"32.6 µM [falling, single point]",–
O=C(O)C1Cc2ccccc2CN1S(=O)(=O)c1ccc2ccccc2c1 (configuration not stated),23.1,"2.06 µM [falling, partial curve]",–
O=C(CCc1nc(-c2ccccc2)no1)NC1CCCCCC1,-8.65,"32.6 µM [falling, single point]",–
CC(C)(C)c1ccc(SCC(N)=O)cc1,–,"0.651 µM [falling, full curve]","0.58 µM [falling, full curve]"
O=S(=O)(NC1=NCCC1)c1ccc(F)cc1F,–,"0.00461 µM [rising, full curve, poor fit]","0.0058 µM [rising, full curve, poor fit]"
O=C(COC(=O)Cc1ccc(Cl)c(Cl)c1)Nc1ccc2[nH]c(=O)[nH]c2c1,-30.8,"2.91 µM [falling, full curve]","3.66 µM [falling, full curve, poor fit]"
O=C(O)CSc1nnc(-c2ccco2)o1,6.29,–,–
CCCCCn1c(N2CCCC2)nc2c1c(=O)n(C)c(=O)n2C,-27.2,"29.1 µM [rising, single point]",–
Cc1nc2c(sc(=S)n2Cc2ccco2)c(=O)n1CC(=O)Nc1ccc(F)cc1,–,"20.6 µM [falling, single point]",–
CC(C)(C)N(Cc1ccccc1)C(=O)CN1C(=O)NC2(CCCCCC2)C1=O,31.3,"13 µM [rising, partial curve, poor fit]","13 µM [rising, partial curve, poor fit]"
Cc1nc2cc(NS(=O)(=O)c3cccc4cccnc34)ccc2s1,-25.8,"16.4 µM [falling, partial curve]",–
CCCCn1c(N)c(N(CC(C)C)C(=O)C2CCN(S(=O)(=O)c3ccc(OCC)cc3)CC2)c(=O)[nH]c1=O,-17.2,"0.82 µM [falling, partial curve]","5.8 µM [falling, single point]"
CCc1nc(SCC(=O)c2cc(C)ccc2C)n[nH]1,30.8,–,"0.651 µM [rising, full curve, poor fit]"
CC/C(CC(C)(C)c1ccccc1)=N\O,-42.6,"1.46 µM [falling, full curve]","1.46 µM [falling, full curve]"
CC1(NC(=O)CCc2ccccc2)CCN(CCCc2ccccc2)C1=O (configuration not stated),-3.88,"0.82 µM [rising, single point]",–
